Source: article PMC6134028
These are yes or no findings as the source states them, for the method shown. For some of these results: In cells and extracts the contact can be indirect. Some entries that bind do so weakly or less than the wild type.

By UniProt entry, the sequences of proteins in these tests, tags left out. Where a name states a change or a piece, a line headed by the entry shows the natural chain unless it says otherwise. Residues count along the entry.
UniProt P35637: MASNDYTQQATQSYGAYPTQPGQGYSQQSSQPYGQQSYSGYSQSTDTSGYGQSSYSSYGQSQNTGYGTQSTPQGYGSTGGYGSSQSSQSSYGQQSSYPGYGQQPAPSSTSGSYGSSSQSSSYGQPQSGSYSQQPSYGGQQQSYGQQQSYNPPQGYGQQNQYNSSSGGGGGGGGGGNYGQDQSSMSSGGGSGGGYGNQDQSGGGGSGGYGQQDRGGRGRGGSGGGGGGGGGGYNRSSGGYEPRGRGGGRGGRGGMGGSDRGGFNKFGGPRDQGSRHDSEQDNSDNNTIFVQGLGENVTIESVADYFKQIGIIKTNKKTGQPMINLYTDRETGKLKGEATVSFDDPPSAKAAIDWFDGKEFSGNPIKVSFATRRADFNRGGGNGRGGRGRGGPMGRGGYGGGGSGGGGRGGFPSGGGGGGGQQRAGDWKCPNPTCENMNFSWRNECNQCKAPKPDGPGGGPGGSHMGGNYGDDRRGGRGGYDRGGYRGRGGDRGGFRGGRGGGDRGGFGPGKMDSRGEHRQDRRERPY
GST-FUS aa465-526: residues 465-526 of P35637
UniProt P18887: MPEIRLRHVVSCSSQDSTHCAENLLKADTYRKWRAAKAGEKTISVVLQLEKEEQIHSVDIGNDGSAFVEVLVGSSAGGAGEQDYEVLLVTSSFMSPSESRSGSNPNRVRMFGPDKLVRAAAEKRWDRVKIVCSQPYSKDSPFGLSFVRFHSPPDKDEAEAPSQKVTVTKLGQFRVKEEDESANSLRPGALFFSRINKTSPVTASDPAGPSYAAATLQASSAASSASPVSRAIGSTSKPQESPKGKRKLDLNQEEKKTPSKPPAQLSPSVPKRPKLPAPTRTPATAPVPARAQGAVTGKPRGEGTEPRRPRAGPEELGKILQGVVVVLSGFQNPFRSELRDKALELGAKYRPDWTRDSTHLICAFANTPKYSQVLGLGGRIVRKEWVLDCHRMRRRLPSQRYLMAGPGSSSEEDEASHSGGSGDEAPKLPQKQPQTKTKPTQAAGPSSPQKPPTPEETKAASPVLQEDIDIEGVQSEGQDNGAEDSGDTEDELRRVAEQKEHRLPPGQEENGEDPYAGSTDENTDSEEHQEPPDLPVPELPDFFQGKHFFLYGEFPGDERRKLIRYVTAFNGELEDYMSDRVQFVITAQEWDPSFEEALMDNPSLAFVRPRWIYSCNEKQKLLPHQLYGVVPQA
UniProt P09874: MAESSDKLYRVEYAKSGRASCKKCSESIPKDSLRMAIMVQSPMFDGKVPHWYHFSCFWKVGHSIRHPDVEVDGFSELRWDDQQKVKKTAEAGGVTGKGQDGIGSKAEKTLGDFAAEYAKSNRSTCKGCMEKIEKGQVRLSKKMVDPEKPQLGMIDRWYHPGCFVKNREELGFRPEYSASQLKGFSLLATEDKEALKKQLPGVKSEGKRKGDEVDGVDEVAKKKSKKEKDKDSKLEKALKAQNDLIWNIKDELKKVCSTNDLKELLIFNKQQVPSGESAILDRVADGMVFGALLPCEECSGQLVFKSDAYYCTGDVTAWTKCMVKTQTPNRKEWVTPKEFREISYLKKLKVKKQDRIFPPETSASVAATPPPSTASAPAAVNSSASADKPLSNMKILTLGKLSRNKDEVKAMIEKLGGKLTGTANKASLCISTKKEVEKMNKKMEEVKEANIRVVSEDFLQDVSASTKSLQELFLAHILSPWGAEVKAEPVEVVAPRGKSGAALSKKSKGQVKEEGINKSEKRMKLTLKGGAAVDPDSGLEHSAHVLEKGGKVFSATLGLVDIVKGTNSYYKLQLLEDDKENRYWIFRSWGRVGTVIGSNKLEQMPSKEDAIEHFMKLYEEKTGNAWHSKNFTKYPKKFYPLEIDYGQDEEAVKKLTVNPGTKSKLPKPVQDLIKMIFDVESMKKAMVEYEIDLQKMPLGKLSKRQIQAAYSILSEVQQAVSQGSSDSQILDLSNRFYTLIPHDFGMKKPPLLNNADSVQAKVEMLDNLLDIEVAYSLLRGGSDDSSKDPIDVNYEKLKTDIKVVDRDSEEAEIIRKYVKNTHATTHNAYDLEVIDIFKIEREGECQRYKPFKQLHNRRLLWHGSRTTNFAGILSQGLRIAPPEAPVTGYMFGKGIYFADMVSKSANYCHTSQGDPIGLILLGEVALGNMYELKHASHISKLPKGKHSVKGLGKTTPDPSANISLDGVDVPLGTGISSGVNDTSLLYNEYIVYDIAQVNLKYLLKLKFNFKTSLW
UniProt Q13426: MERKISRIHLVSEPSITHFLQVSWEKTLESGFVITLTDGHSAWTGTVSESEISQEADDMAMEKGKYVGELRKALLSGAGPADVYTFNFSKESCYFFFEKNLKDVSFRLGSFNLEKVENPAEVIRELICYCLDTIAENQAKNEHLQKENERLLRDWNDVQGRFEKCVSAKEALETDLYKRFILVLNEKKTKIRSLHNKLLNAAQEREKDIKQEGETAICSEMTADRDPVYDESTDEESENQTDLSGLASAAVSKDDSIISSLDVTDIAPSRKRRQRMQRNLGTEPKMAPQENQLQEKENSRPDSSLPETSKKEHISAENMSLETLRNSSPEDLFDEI
UniProt Q9NUW8: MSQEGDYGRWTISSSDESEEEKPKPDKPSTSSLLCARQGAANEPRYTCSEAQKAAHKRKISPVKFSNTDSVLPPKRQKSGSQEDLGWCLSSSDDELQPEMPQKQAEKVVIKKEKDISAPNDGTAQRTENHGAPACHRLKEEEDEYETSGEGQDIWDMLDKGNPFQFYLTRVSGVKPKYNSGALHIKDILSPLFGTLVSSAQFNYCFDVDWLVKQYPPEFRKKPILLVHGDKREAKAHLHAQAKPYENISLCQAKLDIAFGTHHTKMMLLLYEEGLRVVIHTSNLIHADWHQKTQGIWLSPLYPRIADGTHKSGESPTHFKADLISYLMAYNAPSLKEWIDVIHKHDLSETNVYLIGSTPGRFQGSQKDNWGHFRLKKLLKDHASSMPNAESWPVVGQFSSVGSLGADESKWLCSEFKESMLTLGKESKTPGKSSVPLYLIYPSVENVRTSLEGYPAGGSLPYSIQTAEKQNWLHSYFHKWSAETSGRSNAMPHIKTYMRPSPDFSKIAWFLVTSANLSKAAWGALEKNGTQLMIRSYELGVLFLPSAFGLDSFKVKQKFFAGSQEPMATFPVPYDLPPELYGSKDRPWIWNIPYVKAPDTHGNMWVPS

Key:
Flag-FUS WT (human) = Flag-FUS WT (human) (UniProt P35637); experiment: co-IP; anti-Flag IP from HEK293 cells expressing Flag-FUS, with or without GO (100 ng/ml for 1 h), immunoblot
[1] = target: XRCC1, endogenous (human (endogenous in HEK293, SH-SY5Y, iPSCs, motor neurons, fibroblasts)) (UniProt P18887); experiment: co-IP; reciprocal co-IP with the XRCC1 antibody, immunoblot for FUS (Supplementary Fig. 2b)
[2] = target: Fused in Sarcoma (FUS), endogenous (human (endogenous in SH-SY5Y and iPSC-derived motor neurons)) (UniProt P35637); experiment: proximity ligation; Duolink PLA of FUS vs PARP1, XRCC1 or LigIII in iPSC-derived motor neurons, with or without GO
[3] = target: poly(ADP-ribose) polymerase 1 (PARP1), endogenous (human (endogenous in HEK293, SH-SY5Y, iPSCs, motor neurons, fibroblasts)) (UniProt P09874); experiment: co-IP; endogenous co-IP from WT or FUS mutant (R521H, P525L) patient-derived fibroblast lines, immunoblot (text: PARP1 IP; legend: XRCC1 co-IP)
[4] = target: poly(ADP-ribose) polymerase 1 (PARP1), endogenous (human (endogenous in HEK293, SH-SY5Y, iPSCs, motor neurons, fibroblasts)) (UniProt P09874); experiment: proximity ligation; PLA of PARP1 vs XRCC1 in motor neurons after GO treatment (text: FUS KD cells; legend: WT or FUS mutant patient-derived motor neurons)
[5] = target: Fused in Sarcoma (FUS), endogenous (human (endogenous in SH-SY5Y and iPSC-derived motor neurons)) (UniProt P35637); experiment: co-IP; anti-FUS IP of endogenous FUS from differentiated SH-SY5Y cells, with or without GO, immunoblot
[6] = target: Fused in Sarcoma (FUS), endogenous (human (endogenous in SH-SY5Y and iPSC-derived motor neurons)) (UniProt P35637); experiment: proximity ligation; Duolink PLA of FUS vs PARP1, XRCC1 or LigIII in differentiated SH-SY5Y cells, with or without GO; controls with XRCC1 or LigIII siRNA
[7] = target: Fused in Sarcoma (FUS), endogenous (human (endogenous in SH-SY5Y and iPSC-derived motor neurons)) (UniProt P35637); experiment: co-IP; anti-FUS IP of endogenous FUS from iPSC-derived motor neurons, with or without GO, immunoblot
[8] = target: Fused in Sarcoma (FUS), endogenous (human (endogenous in SH-SY5Y and iPSC-derived motor neurons)) (UniProt P35637); experiment: co-IP; IP with a FUS antibody from extracts of cells treated with or without the PARP1 inhibitor AG-14361 (Supplementary Fig. 9a)
GST-FUS (human) = GST-FUS (human) (UniProt P35637); experiment: pull-down; GST-FUS with the partner at 4 C overnight on glutathione affinity gel, washed three times with TEN buffer (20 mM Tris-HCl pH 7.4, 0.1 mM EDTA, 100 mM NaCl), immunoblot; for XRCC1 also in the presence of PARP-1 and NAD+ (PARylation enhanced the interaction); both purified
[9] = target: GST-FUS aa465-526 (human) (UniProt P35637); experiment: pull-down; domain mapping with GST-fused FUS domain polypeptides and XRCC1 (Supplementary Fig. 3, not shown); both purified
[10] = target: Fused in Sarcoma (FUS), endogenous (human (endogenous in SH-SY5Y and iPSC-derived motor neurons)) (UniProt P35637); experiment: proximity ligation; PLA of FUS vs PARP-1 in cells with or without AG-14361 (Supplementary Fig. 9b)

Substance	binding (Flag-FUS WT (human))	binding [2]	binding [5]	binding [6]	binding [7]	further results
DNA ligase complex XRCC4/LigIV, endogenous (from UniProt Q13426 1-336; P49917 1-911)	no binding	–	–	–	–	–
Fused in Sarcoma (FUS), endogenous (from UniProt P35637 1-526)	–	–	–	–	–	binding [1]: binds
XRCC1, purified from insect cells (from UniProt P18887 1-633)	–	–	–	–	–	binding (GST-FUS (human)): binds; binding [9]: binds weakly

Now from value to substance, other results behind:

binding (Flag-FUS WT (human))	binding [2]	binding [5]	binding [6]	binding [7]	Substance	further results
no binding	–	–	–	–	TDP1, endogenous (from UniProt Q9NUW8 1-608) (enzyme)	–
binds	binds	binds	binds	binds	XRCC1, endogenous (from UniProt P18887 1-633)	binding [3]: binds; binding [4]: binds; binding [8]: binds
binds	binds	binds	binds	binds	poly(ADP-ribose) polymerase 1 (PARP1), endogenous (from UniProt P09874 1-1014)	binding [10]: binds
